# Results as given in the supplement of paper PMC3682954.
# Structures can show the parent of a compound that is named as a salt. ± gives the standard deviation of the averaged measurements. This is one part of the list. Single values are uncertain, as repeats are few or missing.
# Tested on: RAW 264.7
# Experiment: HMGB1-induced TNF-alpha production relative to HMGB1-stimulated control; higher = more TNF-alpha secretion (less inhibition)
# Conditions: stimulus: HMGB1 5 ug/ml, 18 h
# [1] = compound concentration: 1 ug/ml
SMILES,HMGB1-induced TNF-alpha production (compound concentration: 3 uM),HMGB1-induced TNF-alpha production [1]
O=C1CC2(CCCC2)CC(=O)N1CCCCN1CCN(c2ncccn2)CC1 [Buspirone],83.1%,–
O=C1CC2(CCCC2)CC(=O)N1CCCCN1CCN(c2ncccn2)CC1 [Buspirone hydrochloride],83.4 ± 15%,–
O=C1CC2(CCCC2)CC(=O)N1CCCCN1CCN(c2ncccn2)CC1,86.6%,–
CC[C@H]1OC(=O)[C@H](C)[C@@H](O[C@H]2C[C@@](C)(OC)[C@@H](O)[C@H](C)O2)[C@H](C)[C@@H](O[C@@H]2O[C@H](C)C[C@H](N(C)C)[C@H]2O)[C@](C)(O)C[C@@H](C)[C@@H]2N[C@@H](COCCOC)O[C@H]([C@H]2C)[C@]1(C)O [Dirithromycin],71.5%,–
CC[C@H]1OC(=O)[C@H](C)[C@@H](O[C@H]2C[C@@](C)(OC)[C@@H](O)[C@H](C)O2)[C@H](C)[C@@H](O[C@@H]2O[C@H](C)C[C@H](N(C)C)[C@H]2O)[C@](C)(O)C[C@@H](C)[C@@H]2N[C@@H](COCCOC)O[C@H]([C@H]2C)[C@]1(C)O,72.5%,–
Cc1cc(C)c(/C=C2\C(=O)Nc3ccccc32)[nH]1,87.5%,–
c1ccc(C(NCc2cccnc2)(c2ccccc2)c2ccccc2)cc1,75.8%,–
Cc1cccc(C#Cc2ccccc2)n1 [6-Methyl-2-(phenylethynyl)pyridine hydrochloride],113%,–
"N[C@H](C(=O)O)c1cc(O)cc(O)c1 [(S)-3,5-Dihydroxyphenylglycine]",90.8%,–
C[C@H](O)C(=O)Nc1c(I)c(C(=O)NC(CO)CO)c(I)c(C(=O)NC(CO)CO)c1I [Iopamidol],113%,–
"COc1ccc2c(c1)C(=O)CC(c1cccc(OC)c1OC)O2 (configuration not stated) [2',3',6-Trimethoxyflavanone]",–,69.3%
O=c1cc[nH]c(=S)[nH]1 [2-Thiouracile],–,62.1%
O=c1cc[nH]c(=S)[nH]1,83%,–
CC(C)CC(=O)N[C@H](C(=O)N[C@H](C(=O)N[C@@H](CC(C)C)[C@@H](O)CC(=O)N[C@@H](C)C(=O)N[C@@H](CC(C)C)[C@@H](O)CC(=O)O)C(C)C)C(C)C [Pepstatin A],86.6%,–
COc1c(-c2ccc(O)c(O)c2)oc2cc(O)cc(O)c2c1=O [Quercetin 3-methyl ether],–,76.9%
O=c1cc(-c2ccc(O)c(O)c2)oc2cc(O[C@@H]3O[C@H](CO)[C@@H](O)[C@H](O)[C@H]3O)cc(O)c12 [Luteolin-7-glucoside],–,69.8%
Cc1cn(C2OC(CO)C(O)C2O)c(=S)[nH]c1=O (configuration not stated) [5-Methyl-2-thiouridine],–,80%
COc1ccc(C(=O)Nc2ccn([C@H]3C[C@H](O)[C@@H](CO)O3)c(=O)n2)cc1 [N4-Anisoyl-2'-deoxycytidine],–,95.9%
C[C@@H]1C[C@H]2[C@@H]3C[C@H](F)C4=CC(=O)C(Cl)=C[C@]4(C)[C@@]3(F)[C@@H](O)C[C@]2(C)[C@@]1(O)C(=O)CO,39.5%,–
C=CCN1CCc2c(cc(O)c(O)c2Br)[C@@H](c2ccccc2)C1 [R(+)-6-Bromo-APB hydrobromide],94.4%,–
N[C@@H](CS(=O)(=O)O)C(=O)O [L-Cysteic acid monohydrate],–,67.5%
O=C(NCC(O)CO)c1c(I)c(C(=O)NCC(O)CO)c(I)c(N(CCO)C(=O)CO)c1I (configuration not stated) [Ioversol],110%,–
CO/N=C(\C(=O)N[C@@H]1C(=O)N2C(C(=O)O)=C(COC(N)=O)CS[C@H]12)c1ccco1 [Cefuroxime sodium salt],80.5%,–
CO/N=C(\C(=O)N[C@@H]1C(=O)N2C(C(=O)O)=C(COC(N)=O)CS[C@H]12)c1ccco1,97%,–

# Copied from the list.
# O=c1cc[nH]c(=S)[nH]1 – HMGB1-induced TNF-alpha production (compound concentration: 3 uM): 83%
# COc1ccc2c(c1)C(=O)CC(c1cccc(OC)c1OC)O2 (configuration not stated) [2',3',6-Trimethoxyflavanone] – HMGB1-induced TNF-alpha production [1]: 69.3%
# CO/N=C(\C(=O)N[C@@H]1C(=O)N2C(C(=O)O)=C(COC(N)=O)CS[C@H]12)c1ccco1 – HMGB1-induced TNF-alpha production (compound concentration: 3 uM): 97%
# O=C1CC2(CCCC2)CC(=O)N1CCCCN1CCN(c2ncccn2)CC1 [Buspirone] – HMGB1-induced TNF-alpha production (compound concentration: 3 uM): 83.1%

# The list continues.

SMILES,HMGB1-induced TNF-alpha production (compound concentration: 3 uM),HMGB1-induced TNF-alpha production [1]
Nc1ccc(S(=O)(=O)Nc2ccnn2-c2ccccc2)cc1,85.6%,–
Nc1ccc(S(=O)(=O)Nc2ccnn2-c2ccccc2)cc1 [Sulfaphenazole],89 ± 33%,–
CCC(=O)c1c(O)cc(O)cc1O,74.6%,–
CC1Cc2ccccc2N1NC(=O)c1ccc(Cl)c(S(N)(=O)=O)c1 (configuration not stated) [Indapamide],42.8 ± 60%,–
CC1Cc2ccccc2N1NC(=O)c1ccc(Cl)c(S(N)(=O)=O)c1 (configuration not stated),89.5%,–
Nc1nc2[nH]c(=O)cnc2c(=O)[nH]1 [Isoxanthopterin],100%,–
CC(C)(C)[C@]1(O)CCN2C[C@H]3c4ccccc4CCc4cccc(c43)[C@@H]2C1 (racemic) [(±)-Butaclamol hydrochloride],79.2%,–
CC(C)(C)[C@]1(O)CCN2C[C@H]3c4ccccc4CCc4cccc(c43)[C@@H]2C1 [(+)-Butaclamol hydrochloride],113%,–
CC(C)(C)[C@]1(O)CCN2C[C@H]3c4ccccc4CCc4cccc(c43)[C@@H]2C1 [Butaclamol (+)],104%,–
"O=c1cc(-c2ccc(O)cc2)oc2cccc(O)c12 [4',5-Dihydroxyflavone]",–,70.8%
CC(C)C[C@@H]1NC(=O)[C@H](CCCN)NC(=O)[C@H](C(C)C)NC(=O)[C@H](Cc2ccc(O)cc2)N[C@@H](CCC(=O)O)C(=O)N[C@@H](CC(N)=O)C(=O)[C@@H](Cc2ccccc2)NC(=O)[C@H](Cc2ccccc2)NC(=O)[C@@H]2CCCN2C(=O)[C@@H](Cc2ccccc2)NC1=O,31.3%,–
COc1ccc2cc(C(C)C(=O)O)ccc2c1 (configuration not stated),87%,–
Nc1ncnc2c1nc(Sc1ccc(Cl)cc1)n2C1OC2COP(=O)(O)O[C@@H]2[C@@H]1O (some centres not stated) [8-(4-Chlorophenylthio)-cAMP sodium],53.5%,–
COC(=O)CC[C@@H](C)[C@H]1CC[C@H]2[C@@H]3[C@H](O)C[C@@H]4C[C@H](O)CC[C@]4(C)[C@H]3C[C@H](O)[C@]12C [Methyl cholate],–,43.9%
NCCNC(=O)c1ncsc1-c1cccc(F)c1 [Ro 41-1049 hydrochloride],103%,–
Cc1cc(CC(=O)O)n(C)c1C(=O)c1ccc(Cl)cc1,101%,–
Cc1cc(CC(=O)O)n(C)c1C(=O)c1ccc(Cl)cc1 [Zomepirac sodium salt],89.7%,–
CCCCCCCCCCCCCCCC(=O)O[C@@H]1[C@@H](O)[C@@H](O)[C@@H]([C@H](NC(=O)[C@@H]2C[C@@H](CCC)CN2C)[C@H](C)Cl)O[C@@H]1SC [Clindamycin palmitate],95.6%,–
CCCCCCCCCCCCCCCC(=O)O[C@@H]1[C@@H](O)[C@@H](O)[C@@H]([C@H](NC(=O)[C@@H]2C[C@@H](CCC)CN2C)[C@H](C)Cl)O[C@@H]1SC,86.7%,–
O=C(O)C1=CCCNC1 [Guvacine hydrochloride],85.2%,–
CC(=O)Nc1ncc([N+](=O)[O-])s1,89.1%,–
OC1(c2ccc(Cl)c(C(F)(F)F)c2)CCN(CCCC(c2ccc(F)cc2)c2ccc(F)cc2)CC1,84.6%,–
C[C@@H]1C[C@H]2[C@@H]3CCC4=CC(=O)C=C[C@]4(C)[C@@]3(F)[C@@H](O)C[C@]2(C)[C@@]1(O)C(=O)CO [Dexamethasone],43.1%,–
C[C@@H]1C[C@H]2[C@@H]3CCC4=CC(=O)C=C[C@]4(C)[C@@]3(F)[C@@H](O)C[C@]2(C)[C@@]1(O)C(=O)CO,29.6%,–

SMILES,HMGB1-induced TNF-alpha production (compound concentration: 3 uM),HMGB1-induced TNF-alpha production [1]
O=C(O)COC(=O)Cc1ccccc1Nc1c(Cl)cccc1Cl [Aceclofenac],94.4 ± 1.3%,–
Cc1cnc(NC(=O)C2=C(O)c3ccccc3S(=O)(=O)N2C)s1,91.6%,–
Cc1cnc(NC(=O)C2=C(O)c3ccccc3S(=O)(=O)N2C)s1 [Meloxicam sodium],113%,–
Cc1cnc(NC(=O)C2=C(O)c3ccccc3S(=O)(=O)N2C)s1 [Meloxicam],65.5 ± 20%,–
CC(C)NCC(O)COc1ccc(CC(N)=O)cc1 (racemic) [(±)-Atenolol],96.8%,–
O=C(O)CCCc1ccccc1 [Sodium Phenylbutyrate],78.4%,–
CC1(C)O[C@@H]2C[C@H]3[C@@H]4CCC5=CC(=O)C=C[C@]5(C)[C@@]4(F)[C@@H](O)C[C@]3(C)[C@]2(C(=O)CO)O1,42.6%,–
N=C(N)SCCc1c[nH]cn1 [Imetit dihydrobromide],98.9%,–
COc1cc2ccc(=O)oc2cc1OC1OC(COC2OC(C)C(O)C(O)C2O)C(O)C(O)C1OC1OC(C)C(O)C(O)C1O (configuration not stated) [Haploperozide],–,71.1%
C1CCN2C[C@@H]3C[C@@H](CN4CCCC[C@@H]34)[C@H]2C1,93.3%,–
O=C(N[C@@H](Cc1c[nH]c2ccccc12)C(=O)O)OCC1c2ccccc2-c2ccccc21 [Nalpha-FMOC-L-Tryptophan],–,73.7%
CC1CC(OC(=O)C(O)c2ccccc2)CC(C)(C)N1C (configuration not stated),92.4%,–
CC1CC(OC(=O)C(O)c2ccccc2)CC(C)(C)N1C (configuration not stated) [Eucatropine hydrochloride],109%,–
OC[C@H]1O[C@@H](n2cnc3c(NCc4ccco4)ncnc32)[C@H](O)[C@@H]1O [Kinetin-9-riboside],–,74.3%
CCCCCCCC/C=C/CCCCCCCCOP(=O)([O-])OCC[N+](C)(C)C,106%,–
Cc1nnc(NS(=O)(=O)c2ccc(N)cc2)s1,85.3%,–
Cc1nnc(NS(=O)(=O)c2ccc(N)cc2)s1 [Sulfamethizole],101%,–
CN(C)c1ccc(/C=C2/C(=O)Nc3ccccc32)cc1,110%,–
COc1cc(NS(C)(=O)=O)ccc1Nc1c2ccccc2nc2ccccc12,96.1 ± 35%,–
COc1cc(NS(C)(=O)=O)ccc1Nc1c2ccccc2nc2ccccc12 [Amsacrine hydrochloride],71.3%,–
CCN1CCC[C@H]1CNC(=O)c1c(OC)ccc(Br)c1OC [Remoxipride Hydrochloride],68%,–
CCN1CCC[C@H]1CNC(=O)c1c(OC)ccc(Br)c1OC [Remoxipride],92.1%,–
CCN1CCN(c2cc3c(cc2F)c(=O)c(C(=O)O)cn3C2CC2)CC1 [Enrofloxacin],94.7%,–
CCN1CCN(c2cc3c(cc2F)c(=O)c(C(=O)O)cn3C2CC2)CC1,102 ± 7.2%,–
